The other results are listed elsewhere or left out.
compound: C1=CC=C(C=C1)C2=NC(=C(N2)C3=CC=NC=C3)C4=CC(=C(C=C4)Cl)O; test: log2 fold change, soluble protein after heating vs DMSO (PISA); higher = thermal stabilisation; K562 lysate, 10 uM; active = over 0.2 and 3.5 SD of the protein, either way, in both replicates (recomputed)
Method in brief: (§1)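 K562 pellets were dounce-homogenised in PBS pH 7.4 containing 1 mM MgCl2, and the crude extract, at 1 mg/mL protein, was exposed to 10 μM compound for 30 min. Aliquots were heated for 3 min across 48°C-58°C, pooled, brought to 0.5% NP-40 at 4°C and spun at 21,000xg for 90 min, with the supernatant taken as soluble protein. TMTpro 16plex LC-MS/MS with equalised channel sums quantified that protein. Values are log-two fold changes in thermal stability relative to solvent controls, taken from duplicates.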

Sequences of proteins named here, by UniProt entry; tags and fusion partners are left off. A change or cut given only in a name is not applied to a line headed by its entry.
UniProt Q92830, whole entry, looked up: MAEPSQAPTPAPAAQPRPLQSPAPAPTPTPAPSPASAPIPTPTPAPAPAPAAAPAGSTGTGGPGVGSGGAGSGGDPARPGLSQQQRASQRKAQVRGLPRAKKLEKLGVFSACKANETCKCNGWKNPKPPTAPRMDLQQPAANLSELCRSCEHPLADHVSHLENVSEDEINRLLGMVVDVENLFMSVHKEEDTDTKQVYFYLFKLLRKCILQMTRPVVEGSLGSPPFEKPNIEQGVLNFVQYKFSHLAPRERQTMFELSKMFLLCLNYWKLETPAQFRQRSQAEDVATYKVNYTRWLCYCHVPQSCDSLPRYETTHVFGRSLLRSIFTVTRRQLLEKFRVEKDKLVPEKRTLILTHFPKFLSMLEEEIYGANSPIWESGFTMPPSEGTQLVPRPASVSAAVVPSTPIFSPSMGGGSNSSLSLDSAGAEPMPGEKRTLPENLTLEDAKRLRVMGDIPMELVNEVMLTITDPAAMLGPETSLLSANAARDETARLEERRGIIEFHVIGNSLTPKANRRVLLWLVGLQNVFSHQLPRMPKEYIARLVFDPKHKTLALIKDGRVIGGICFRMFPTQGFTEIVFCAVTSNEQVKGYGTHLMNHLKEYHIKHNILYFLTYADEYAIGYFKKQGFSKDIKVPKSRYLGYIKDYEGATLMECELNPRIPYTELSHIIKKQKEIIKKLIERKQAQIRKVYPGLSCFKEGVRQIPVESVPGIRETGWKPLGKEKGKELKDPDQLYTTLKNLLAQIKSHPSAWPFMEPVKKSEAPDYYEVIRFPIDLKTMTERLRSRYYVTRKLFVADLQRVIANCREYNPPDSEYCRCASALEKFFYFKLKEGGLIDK
UniProt Q14643, whole entry, looked up: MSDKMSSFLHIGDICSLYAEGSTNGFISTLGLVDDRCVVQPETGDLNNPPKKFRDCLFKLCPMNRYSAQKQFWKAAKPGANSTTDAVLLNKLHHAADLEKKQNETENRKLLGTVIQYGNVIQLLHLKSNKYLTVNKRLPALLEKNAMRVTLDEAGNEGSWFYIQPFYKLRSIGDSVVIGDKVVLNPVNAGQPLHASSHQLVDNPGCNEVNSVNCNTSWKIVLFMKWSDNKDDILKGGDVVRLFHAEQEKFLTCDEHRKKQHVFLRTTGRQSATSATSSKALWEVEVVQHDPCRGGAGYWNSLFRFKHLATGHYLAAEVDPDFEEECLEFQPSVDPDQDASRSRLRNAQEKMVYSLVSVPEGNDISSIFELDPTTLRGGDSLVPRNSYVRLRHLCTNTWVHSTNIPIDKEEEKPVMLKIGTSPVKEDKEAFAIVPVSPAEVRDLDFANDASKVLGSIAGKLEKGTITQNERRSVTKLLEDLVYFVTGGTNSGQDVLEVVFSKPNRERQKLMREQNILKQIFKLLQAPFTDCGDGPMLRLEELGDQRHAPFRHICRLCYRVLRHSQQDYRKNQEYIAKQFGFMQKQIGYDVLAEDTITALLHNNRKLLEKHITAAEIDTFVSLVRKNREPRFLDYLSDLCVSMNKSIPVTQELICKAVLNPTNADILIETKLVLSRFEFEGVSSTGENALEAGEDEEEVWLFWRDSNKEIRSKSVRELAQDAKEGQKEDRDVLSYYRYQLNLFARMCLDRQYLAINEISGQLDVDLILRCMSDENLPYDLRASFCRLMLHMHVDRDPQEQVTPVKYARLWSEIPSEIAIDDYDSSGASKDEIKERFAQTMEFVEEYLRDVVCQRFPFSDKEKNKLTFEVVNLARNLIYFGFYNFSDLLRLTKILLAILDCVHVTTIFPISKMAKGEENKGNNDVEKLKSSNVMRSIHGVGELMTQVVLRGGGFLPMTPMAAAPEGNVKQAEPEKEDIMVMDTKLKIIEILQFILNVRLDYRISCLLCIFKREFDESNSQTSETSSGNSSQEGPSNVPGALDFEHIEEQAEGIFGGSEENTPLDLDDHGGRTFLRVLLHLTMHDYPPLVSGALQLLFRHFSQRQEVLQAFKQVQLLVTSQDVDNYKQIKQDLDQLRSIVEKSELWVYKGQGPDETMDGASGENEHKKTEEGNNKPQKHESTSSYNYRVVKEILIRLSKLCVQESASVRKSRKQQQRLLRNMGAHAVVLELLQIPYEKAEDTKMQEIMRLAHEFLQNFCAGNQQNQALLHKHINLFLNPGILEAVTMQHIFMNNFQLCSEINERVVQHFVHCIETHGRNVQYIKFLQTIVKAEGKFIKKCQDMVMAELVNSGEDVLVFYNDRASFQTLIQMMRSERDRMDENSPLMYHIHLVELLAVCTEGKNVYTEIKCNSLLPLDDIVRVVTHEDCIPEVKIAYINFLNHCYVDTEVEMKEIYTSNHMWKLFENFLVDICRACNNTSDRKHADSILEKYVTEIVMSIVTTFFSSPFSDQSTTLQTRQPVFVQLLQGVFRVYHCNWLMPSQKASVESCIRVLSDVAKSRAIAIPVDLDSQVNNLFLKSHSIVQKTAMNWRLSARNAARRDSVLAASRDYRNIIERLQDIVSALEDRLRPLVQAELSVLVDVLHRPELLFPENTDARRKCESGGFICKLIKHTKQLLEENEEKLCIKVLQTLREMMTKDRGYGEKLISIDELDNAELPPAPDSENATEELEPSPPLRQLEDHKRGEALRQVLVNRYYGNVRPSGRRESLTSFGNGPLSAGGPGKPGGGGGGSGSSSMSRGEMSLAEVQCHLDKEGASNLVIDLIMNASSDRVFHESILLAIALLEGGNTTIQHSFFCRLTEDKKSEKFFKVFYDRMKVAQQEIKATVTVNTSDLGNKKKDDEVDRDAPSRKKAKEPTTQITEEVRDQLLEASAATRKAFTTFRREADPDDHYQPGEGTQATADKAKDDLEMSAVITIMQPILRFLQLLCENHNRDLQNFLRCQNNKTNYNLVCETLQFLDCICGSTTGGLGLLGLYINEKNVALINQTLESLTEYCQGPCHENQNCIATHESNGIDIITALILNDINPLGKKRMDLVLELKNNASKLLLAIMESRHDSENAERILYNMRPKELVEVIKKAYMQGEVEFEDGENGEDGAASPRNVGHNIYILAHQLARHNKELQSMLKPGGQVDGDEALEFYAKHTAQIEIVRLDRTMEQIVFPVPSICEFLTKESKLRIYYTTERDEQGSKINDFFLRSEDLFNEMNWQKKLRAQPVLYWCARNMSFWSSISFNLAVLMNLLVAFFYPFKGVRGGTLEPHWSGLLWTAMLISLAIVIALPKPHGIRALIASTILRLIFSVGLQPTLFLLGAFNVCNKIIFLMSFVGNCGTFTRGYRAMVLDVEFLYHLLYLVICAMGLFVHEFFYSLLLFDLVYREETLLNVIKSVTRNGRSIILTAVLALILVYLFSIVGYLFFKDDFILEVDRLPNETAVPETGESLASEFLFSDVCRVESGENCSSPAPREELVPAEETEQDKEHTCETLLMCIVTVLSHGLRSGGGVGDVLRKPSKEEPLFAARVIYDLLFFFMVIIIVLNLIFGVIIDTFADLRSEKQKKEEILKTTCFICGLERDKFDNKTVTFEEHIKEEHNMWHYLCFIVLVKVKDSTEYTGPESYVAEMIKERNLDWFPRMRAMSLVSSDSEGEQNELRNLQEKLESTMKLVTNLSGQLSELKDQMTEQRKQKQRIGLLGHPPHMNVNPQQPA
UniProt Q06033: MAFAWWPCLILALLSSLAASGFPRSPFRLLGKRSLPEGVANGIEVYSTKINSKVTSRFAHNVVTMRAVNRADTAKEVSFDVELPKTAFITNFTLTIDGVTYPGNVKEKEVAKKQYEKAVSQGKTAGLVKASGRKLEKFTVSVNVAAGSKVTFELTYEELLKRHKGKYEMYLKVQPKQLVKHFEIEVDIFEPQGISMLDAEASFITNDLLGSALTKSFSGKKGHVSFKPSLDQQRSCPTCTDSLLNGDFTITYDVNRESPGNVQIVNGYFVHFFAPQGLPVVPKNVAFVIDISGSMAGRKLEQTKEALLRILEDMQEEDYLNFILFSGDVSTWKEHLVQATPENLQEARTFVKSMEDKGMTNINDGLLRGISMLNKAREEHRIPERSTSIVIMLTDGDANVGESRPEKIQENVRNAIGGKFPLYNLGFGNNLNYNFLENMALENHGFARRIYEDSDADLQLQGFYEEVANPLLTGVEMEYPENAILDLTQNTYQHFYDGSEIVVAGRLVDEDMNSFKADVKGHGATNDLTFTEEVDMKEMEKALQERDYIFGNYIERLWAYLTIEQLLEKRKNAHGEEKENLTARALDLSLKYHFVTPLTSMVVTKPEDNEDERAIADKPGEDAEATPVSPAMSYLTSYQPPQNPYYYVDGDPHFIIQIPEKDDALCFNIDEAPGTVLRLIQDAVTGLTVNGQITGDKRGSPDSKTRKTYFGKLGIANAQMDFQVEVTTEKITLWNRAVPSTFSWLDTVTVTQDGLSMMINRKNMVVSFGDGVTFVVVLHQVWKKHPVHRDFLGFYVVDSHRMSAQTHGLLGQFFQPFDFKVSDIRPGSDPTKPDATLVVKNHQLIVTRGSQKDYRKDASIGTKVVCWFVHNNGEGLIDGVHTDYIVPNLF
UniProt Q9NQX7: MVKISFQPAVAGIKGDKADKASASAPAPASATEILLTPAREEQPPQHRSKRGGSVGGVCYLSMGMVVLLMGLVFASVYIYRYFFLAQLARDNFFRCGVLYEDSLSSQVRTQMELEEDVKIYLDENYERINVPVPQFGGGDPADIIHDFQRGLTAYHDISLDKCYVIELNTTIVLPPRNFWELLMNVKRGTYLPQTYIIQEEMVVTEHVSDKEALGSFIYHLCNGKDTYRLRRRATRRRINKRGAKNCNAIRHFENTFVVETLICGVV
UniProt Q13352: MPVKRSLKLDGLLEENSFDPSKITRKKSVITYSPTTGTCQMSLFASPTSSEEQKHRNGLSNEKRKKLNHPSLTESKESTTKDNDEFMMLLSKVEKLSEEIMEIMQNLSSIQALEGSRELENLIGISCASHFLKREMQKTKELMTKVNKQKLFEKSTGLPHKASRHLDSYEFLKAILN
UniProt P28290: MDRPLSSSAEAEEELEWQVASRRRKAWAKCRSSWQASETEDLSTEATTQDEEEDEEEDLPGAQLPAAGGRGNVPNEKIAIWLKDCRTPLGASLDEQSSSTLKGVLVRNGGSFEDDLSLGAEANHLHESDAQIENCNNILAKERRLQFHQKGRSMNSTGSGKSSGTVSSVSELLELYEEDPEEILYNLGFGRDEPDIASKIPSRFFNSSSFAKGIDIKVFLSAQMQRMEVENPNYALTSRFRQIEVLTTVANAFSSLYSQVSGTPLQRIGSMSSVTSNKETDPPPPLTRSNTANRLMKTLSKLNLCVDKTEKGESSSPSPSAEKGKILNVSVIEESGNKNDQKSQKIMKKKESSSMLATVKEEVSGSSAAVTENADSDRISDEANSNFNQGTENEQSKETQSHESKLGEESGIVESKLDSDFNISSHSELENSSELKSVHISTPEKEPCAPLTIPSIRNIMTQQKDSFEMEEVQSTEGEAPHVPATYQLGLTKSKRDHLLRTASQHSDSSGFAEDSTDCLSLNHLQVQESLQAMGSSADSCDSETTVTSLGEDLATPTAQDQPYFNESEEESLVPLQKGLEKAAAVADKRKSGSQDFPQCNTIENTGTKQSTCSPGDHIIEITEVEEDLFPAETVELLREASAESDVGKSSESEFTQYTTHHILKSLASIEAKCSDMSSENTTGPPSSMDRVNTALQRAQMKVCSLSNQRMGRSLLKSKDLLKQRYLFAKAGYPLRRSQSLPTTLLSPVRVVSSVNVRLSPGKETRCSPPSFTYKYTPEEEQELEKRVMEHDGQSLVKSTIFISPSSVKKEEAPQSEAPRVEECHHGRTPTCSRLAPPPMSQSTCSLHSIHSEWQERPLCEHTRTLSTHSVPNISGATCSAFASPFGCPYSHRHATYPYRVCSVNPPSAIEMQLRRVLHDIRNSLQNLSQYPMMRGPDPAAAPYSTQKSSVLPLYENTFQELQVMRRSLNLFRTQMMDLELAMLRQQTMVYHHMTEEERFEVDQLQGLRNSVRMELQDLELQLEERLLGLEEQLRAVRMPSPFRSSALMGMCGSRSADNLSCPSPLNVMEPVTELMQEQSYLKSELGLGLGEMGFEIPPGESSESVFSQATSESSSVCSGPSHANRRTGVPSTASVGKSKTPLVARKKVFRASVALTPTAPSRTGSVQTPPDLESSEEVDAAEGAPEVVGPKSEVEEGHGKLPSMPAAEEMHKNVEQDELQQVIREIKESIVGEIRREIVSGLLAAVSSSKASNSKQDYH
UniProt Q9UKP3: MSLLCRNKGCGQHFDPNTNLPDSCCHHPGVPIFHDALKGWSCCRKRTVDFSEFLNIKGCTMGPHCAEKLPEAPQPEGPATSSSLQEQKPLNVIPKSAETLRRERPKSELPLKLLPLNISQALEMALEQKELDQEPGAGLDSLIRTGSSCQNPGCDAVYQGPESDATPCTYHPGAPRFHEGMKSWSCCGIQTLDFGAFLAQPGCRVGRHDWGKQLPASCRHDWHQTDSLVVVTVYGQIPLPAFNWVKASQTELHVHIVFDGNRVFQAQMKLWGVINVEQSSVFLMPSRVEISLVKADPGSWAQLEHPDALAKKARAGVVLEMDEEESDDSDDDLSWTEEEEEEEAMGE

log2 fold change, inactive:
JMY (UniProt Q8N9B5) 0.076, ISL2 (UniProt Q96A47) -0.014, IRF9 (UniProt Q00978) -0.197, ITFG2 (UniProt H0YGR0) 0.079, KAT2A (UniProt Q92830) 0.072, ITPR1 (UniProt Q14643) 0.074, ITPR2 (UniProt Q14571) -0.051, ITIH2 (UniProt P19823) 0, INTS6L (UniProt Q5JSJ4) 0.095, ITIH3 (UniProt Q06033) 0.031, IRS2 (UniProt Q9Y4H2) 0.143, JMJD7 (UniProt P0C870) 0.117, KCNN4 (UniProt O15554) 0.025, KANSL2 (UniProt Q9H9L4) 0.018, KDM2B (UniProt Q8NHM5) 0, JUN (UniProt P05412) 0.02, KANK2 isoform 2 (UniProt Q63ZY3) -0.044, ITM2C (UniProt Q9NQX7) -0.029, INTU (UniProt Q9ULD6) -0.094, ITGB3BP isoform 5 (UniProt Q13352) -0.089, JAG2 (UniProt Q9Y219) 0.011, KCTD13 (UniProt Q8WZ19) 0.093, ITPRID2 (UniProt P28290) -0.04, KAZN isoform 3 (UniProt Q674X7) 0.013, KANSL1 (UniProt Q7Z3B3) -0.026

compound: C1=CC=C2C(=C1)C3=NNC4=CC=CC(=C43)C2=O; test: as above
Method in brief: as §1

log2 fold change, inactive:
ITFG2 (UniProt H0YGR0) 0.117, ITPR1 (UniProt Q14643) -0.085, ITIH2 (UniProt P19823) -0.014, KCTD2 (UniProt Q14681) -0.105, JAK1 (UniProt P23458) 0.009, ITGB1BP2 (UniProt Q9UKP3) 0.039, JAK3 (UniProt P52333) 0.23, IQUB (UniProt Q8NA54) 0.224, KANK2 isoform 2 (UniProt Q63ZY3) -0.099, INTU (UniProt Q9ULD6) -0.072, NA (UniProt J3KR12) -0.11

compound: C1CCN(C1)C(=O)NC2=CC=CC(=C2)NC3=NC=C(C(=N3)NCCC4=CN=CN4)Br; test: as above
Method in brief: as §1

log2 fold change, inactive:
KAT2A (UniProt Q92830) -0.323, ITPR1 (UniProt Q14643) 0.016, ITIH2 (UniProt P19823) -0.017, KCTD2 (UniProt Q14681) 0.168, JAK1 (UniProt P23458) 0.226, ITGB1BP2 (UniProt Q9UKP3) -0.117, JADE2 (UniProt Q9NQC1) -0.096, ITIH3 (UniProt Q06033) 0.05, JMJD7 (UniProt P0C870) 0.085, KDM2B (UniProt Q8NHM5) 0.048, JUN (UniProt P05412) 0.061, KANK2 isoform 2 (UniProt Q63ZY3) 0.247, ITM2C (UniProt Q9NQX7) -0.007, NA (UniProt J3KR12) -0.458, JAG2 (UniProt Q9Y219) -0.091, ITPRID2 (UniProt P28290) -0.117, KANSL1 (UniProt Q7Z3B3) 0.009

compound: C1CN(CCC1(CC2=CC=C(C=C2)Cl)N)C3=NC=NC4=C3C=CN4; test: as above
Method in brief: as §1

log2 fold change, inactive:
KAT2A (UniProt Q92830) 0.211, ITPR1 (UniProt Q14643) -0.019, ITIH2 (UniProt P19823) -0.064, KCTD2 (UniProt Q14681) -0.196, JAK1 (UniProt P23458) 0.101, ITGB1BP2 (UniProt Q9UKP3) 0.09, JADE2 (UniProt Q9NQC1) 0.192, ITIH3 (UniProt Q06033) 0.022, JMJD7 (UniProt P0C870) 0.184, KDM2B (UniProt Q8NHM5) 0.035, JUN (UniProt P05412) 0.128, KANK2 isoform 2 (UniProt Q63ZY3) -0.014, ITM2C (UniProt Q9NQX7) -0.036, NA (UniProt J3KR12) 0.03, JAG2 (UniProt Q9Y219) 0.109, ITPRID2 (UniProt P28290) 0.079, KANSL1 (UniProt Q7Z3B3) 0.029

compound: C1COCCN1CCN2C3=CC=CC=C3N=C2NC(=O)C4=CC(=CC=C4)[N+](=O)[O-] [IRAK-1-4 Inhibitor I]; test: as above
Method in brief: as §1

log2 fold change, inactive:
JMY (UniProt Q8N9B5) 0.045, ISL2 (UniProt Q96A47) 0.016, IRF9 (UniProt Q00978) 0.167, ITFG2 (UniProt H0YGR0) 0.065, KAT2A (UniProt Q92830) -0.126, ITPR1 (UniProt Q14643) 0.062, ITPR2 (UniProt Q14571) 0.021, ITIH2 (UniProt P19823) 0.015, INTS6L (UniProt Q5JSJ4) -0.073, ITIH3 (UniProt Q06033) -0.011, IRS2 (UniProt Q9Y4H2) -0.009, JMJD7 (UniProt P0C870) -0.227, KCNN4 (UniProt O15554) -0.219, KANSL2 (UniProt Q9H9L4) 0.018, KDM2B (UniProt Q8NHM5) 0.004, JUN (UniProt P05412) 0.011, KANK2 isoform 2 (UniProt Q63ZY3) 0.175, ITM2C (UniProt Q9NQX7) 0.025, INTU (UniProt Q9ULD6) 0.346, ITGB3BP isoform 5 (UniProt Q13352) 0.072, JAG2 (UniProt Q9Y219) 0.155, KCTD13 (UniProt Q8WZ19) -0.01, ITPRID2 (UniProt P28290) -0.018, KAZN isoform 3 (UniProt Q674X7) -0.228, KANSL1 (UniProt Q7Z3B3) 0.096

— the supplement of paper PMC10849652
